According to PubChem BioAssay AID720504 (National Center for Advancing Translational Sciences (NCATS), 2013):
Out of some 360,000 compounds screened, about 10,000 (2.8%) were called active. Inconclusive results, whose numbers are uncertain, are shown with a selection of clear calls. The call rests on the fitted dose curve; in most records, active means well fitted inhibition curve with a large enough effect; inconclusive means small, poorly fitted or top-dose-only effect; inactive means flat fitted curve, though single readings scatter. A potency beside an inconclusive call is a rough fit, not a confirmed value.

Protein sequences, listed by entry. Tags and fused reporters are not part of them.
UniProt P53350, whole entry, looked up: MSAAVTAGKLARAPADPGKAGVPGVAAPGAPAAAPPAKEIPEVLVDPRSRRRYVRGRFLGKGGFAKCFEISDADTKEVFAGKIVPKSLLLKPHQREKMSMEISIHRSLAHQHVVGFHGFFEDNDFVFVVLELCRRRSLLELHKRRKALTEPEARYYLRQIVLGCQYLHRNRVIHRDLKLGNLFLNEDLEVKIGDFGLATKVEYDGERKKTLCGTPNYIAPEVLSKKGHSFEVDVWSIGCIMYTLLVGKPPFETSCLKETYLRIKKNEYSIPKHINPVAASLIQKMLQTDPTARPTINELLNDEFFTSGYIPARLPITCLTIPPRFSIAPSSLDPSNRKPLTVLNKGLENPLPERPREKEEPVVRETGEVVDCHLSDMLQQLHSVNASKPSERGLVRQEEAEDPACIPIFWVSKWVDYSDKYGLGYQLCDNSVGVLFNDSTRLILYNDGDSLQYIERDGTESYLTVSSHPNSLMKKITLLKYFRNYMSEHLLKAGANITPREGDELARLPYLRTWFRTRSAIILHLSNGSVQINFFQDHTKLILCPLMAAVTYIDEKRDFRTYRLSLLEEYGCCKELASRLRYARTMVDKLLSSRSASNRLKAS

Biological target: Serine/threonine-protein kinase PLK1 (Homo sapiens) (UniProt P53350)
Test: qHTS for Inhibitors of PLK1-PDB (polo-like kinase 1 - polo-box domain): Primary Screen; further: nearly all actives have a fitted effect of over 65% in size; on max response, negative = inhibition: series mostly up to about 57 µM
Conditions: Plk1 PBD binding of FITC phosphopeptide, fluorescence polarization
On the % scale 0 is the no-effect control and ±100 the full control effect; potency means the concentration at half of the fitted maximal effect.

| SMILES | Potency | max response, negative = inhibition |
| --- | --- | --- |
| O=C(C[n+]1cccc2ccccc21)c1ccc([N+](=O)[O-])cc1 | inconclusive: 37.7 µM [inhibitor, single point] | – |
| COc1cc(C2c3c(-c4cc(Cl)c(C)cc4O)n[nH]c3C(=O)N2Cc2cccnc2)ccc1O (stereo unspecified) | – | inactive: -6.83% |
| N#C/C(=C\c1cn[nH]c1-c1ccccc1Br)C(=O)O | inconclusive: 26.7 µM [inhibitor, single point] | – |
| COC(=O)c1sccc1NC(=O)CSc1ccccc1NS(=O)(=O)c1cc(Cl)ccc1Cl | inconclusive: 29.9 µM [inhibitor, partial curve] | – |
| Cc1c(C(=O)N2CCN(Cc3ccccc3)CC2)oc2c1C(=O)CC(C)(C)C2 | inconclusive: 26.7 µM [inhibitor, single point] | – |
| O=C(NC(=S)Nc1ccccc1N1CCCC1)c1cccc(F)c1 | inconclusive: 23.8 µM [inhibitor, single point] | – |
| CCN(CC)c1ccc(/C=C(\C#N)C(=O)NCc2ccccc2)cc1 | inconclusive: 33.6 µM [inhibitor, single point] | – |
| Cc1ccc2c(CSc3nncs3)cc(=O)oc2c1 | inconclusive: 29.9 µM [inhibitor, single point] | – |
| CC(=O)Oc1c(Br)cc(N(C(C)=O)S(=O)(=O)c2ccccc2)c2ccccc12 | active: 26.7 µM | – |
| O=C(CSc1nnc(C2CCCCC2)n1Cc1ccccc1)NCc1ccco1 | active: 26.7 µM | – |
| Cc1ccc(NC(=O)c2ccc([N+](=O)[O-])s2)cc1S(=O)(=O)N1CCOCC1 | inconclusive: 23.8 µM [inhibitor, single point] | – |
| CCN1CCN(c2cc(C)c3cc(NC(=S)NCCN(C)C)ccc3n2)CC1 | inconclusive: 21.2 µM [inhibitor, partial curve] | – |
| O=C1Nc2ccc(S(=O)(=O)N(CCO)CCO)c3cccc1c23 | active: 21.2 µM | – |
| Cc1cc(O)cc2c1C(=O)/C(=C/c1ccco1)O2 | inconclusive: 26.7 µM [inhibitor, partial curve] | – |
| O=C(CC1C[C@H](C(=O)N2CCCCC2)[C@@]2(CCc3ccccc3)c3[nH]c4ccccc4c3CCN2C1=O)NCCc1ccccn1 (stereo partly specified) | – | inactive: 0.939% |
| COc1ccc(NCc2cc3ccccc3[nH]c2=O)cc1 | – | inactive: -9.86% |
| Cc1cc(NC(=O)CSc2nc3ccccc3c(=O)n2Cc2ccc(F)cc2)no1 | – | inactive: -15.5% |
| CCCCn1c2c(c(=N)c3ccccc31)CCC2 | – | inactive: -3.48% |
| COc1ccc(CC(=O)O)cc1O | inconclusive: 37.7 µM [inhibitor, single point] | – |
| COCCNCC(=O)N1c2ccccc2Sc2ccccc21 | inconclusive: 26.7 µM [inhibitor, partial curve] | – |
| CC(=O)N(c1cccc(C)c1)C1SC(=O)N(c2ccccc2)C1=O (stereo unspecified) | active: 23.8 µM | – |
| CNC(=O)c1sc(N2N=C3/C(=C/c4ccccc4)CCCC3C2c2ccccc2)nc1C (stereo unspecified) | inconclusive: 39.8 µM [inhibitor, single point] | – |
| CC(/C=N/n1c(COc2ccccc2)n[nH]c1=S)=C\c1ccccc1 | inconclusive: 26.7 µM [inhibitor, partial curve] | – |
| O=C(O)C(Cc1ccccc1)N=C(NS(=O)(=O)c1ccccc1)c1ccccc1 (stereo unspecified) | – | inactive: -2.36% |
| CN(C)c1nc(N)c2ncc(=S)[nH]c2n1 | active: 4.74 µM | – |
| Cn1c(=O)c(Oc2ccc(F)cc2)c(O)c2ccccc21 | – | inactive: -6.27% |

| SMILES | Potency | max response, negative = inhibition |
| --- | --- | --- |
| CC(=O)/C(=N\Nc1ccc(Cl)cc1Cl)Sc1cccc2cccnc12 | active: 4.23 µM | – |
| COc1cc(C(=O)N2CCN(CCCc3ccccc3)CC2)cc(OC)c1OC | inconclusive: 37.7 µM [inhibitor, single point] | – |
| O=C(CSc1ccccc1)Nc1ccc(S(=O)(=O)Nc2ncccn2)cc1 | inconclusive: 33.6 µM [inhibitor, single point] | – |
| CC(C)CNC(=S)Nc1ccc(S(N)(=O)=O)cc1 | inconclusive: 21.2 µM [inhibitor, partial curve] | – |
| COc1ccc(NC(=O)CSCC(=O)N(C)CC(=O)Nc2cccc3ccccc23)cc1 | – | inactive: 7.99% |
| O=C(COC(=O)/C=C/c1ccco1)NCc1ccccc1Cl | – | inactive: -11.8% |
| COc1ccc(NC(=O)CN(C)C(=O)Cc2ccc3c(c2)OCCO3)cc1 | – | inactive: -4.98% |
| CC(C)c1ccc(/C=N/Nc2ccc(C(=O)O)cc2)cc1 | inconclusive: 9.47 µM [inhibitor, partial curve] | – |
| COc1cc(OC)cc(C(=O)n2cnnc2N)c1 | – | inactive: -13.2% |
| COC(=O)c1c(-c2ccccc2OC)sc2ccc(OC)cc12 | – | inactive: -0.852% |
| CC(=O)c1ccc(NC(=O)CNCc2cccs2)cc1 | inconclusive: 29.9 µM [inhibitor, single point] | – |
| CCCc1cc(C(=O)NNC(=S)NC2CCCCC2)cs1 | – | inconclusive: -31.7% [inhibitor] |
| O=[N+]1C2=C(CCCC2)N([O-])C12CCCC2 | – | inactive: -3.67% |
| Cc1ccc(Nc2nnc(SC/C(O)=C(\C#N)c3nc4ccccc4[nH]3)s2)c(C)c1 | inconclusive: 29.9 µM [inhibitor, single point] | – |
| CCOC(=O)/C=C/C(=O)OCC(=O)NC(c1ccccc1)c1ccccc1 | inconclusive: 29.9 µM [inhibitor, single point] | – |
| Cc1cc(NC(=O)c2cccc(Oc3ccccc3)c2)n[nH]1 | – | inactive: -5.33% |
| N=c1c(C(=O)NCC2CCCO2)cc2c(=O)n3ccccc3nc2n1Cc1ccccc1Cl (stereo unspecified) | – | inconclusive: -33.6% [inhibitor] |
| FC(F)Oc1ccc(NC(=S)NC2CCCCCCC2)cc1 | inconclusive: 26.7 µM [inhibitor, single point] | – |
| Fc1ccccc1-n1[nH]nnc1=S | – | inconclusive: -1.63% [inhibitor] |
| COc1ccc([N+](=O)[O-])cc1NC(=O)CSc1nc(C)cc(C)n1 | active: 13.4 µM | – |
| CCCc1cc(Nc2cccc(OCC)c2)n2ncnc2n1 | – | inactive: -5% |
| O=C(CCSc1ccc(Cl)cc1)Nc1cccnc1 | inconclusive: 23.8 µM [inhibitor, single point] | – |
| CC(C)(Oc1ccc(Cl)cc1)C(=O)Nc1ncccn1 | inconclusive: 23.8 µM [inhibitor, single point] | – |
| Cc1cc(NC(=O)CCC(=O)N(CC2CCCO2)C(C(=O)NC2CCCC2)c2cccnc2)no1 (stereo unspecified) | active: 26.7 µM | – |
| Cc1cc(C)cc(OCC(=O)OCCN2C(=O)c3ccccc3C2=O)c1 | – | inactive: -17.2% |
| CN(CCO)CCOCCOc1cccc2ccccc12 | – | inactive: -11.7% |

| SMILES | Potency | max response, negative = inhibition |
| --- | --- | --- |
| O=C(NC(=S)Nc1ccc(S(=O)(=O)Nc2nccs2)cc1)c1ccc(Br)o1 | – | inactive: -27.2% |
| S=c1[nH]nc(C2CCCCC2)n1/N=C/c1ccccc1 | inconclusive: 23.8 µM [inhibitor, partial curve] | – |
| CC(=O)Nc1cc(-c2cccc(C(=O)N(C)C)c2)cn2c(-c3ccc(F)c(Cl)c3)cnc12 | – | inconclusive: -35.1% [inhibitor] |
| Fc1ccccc1CSc1nnc(-c2cnccn2)n1Cc1ccco1 | – | inactive: -1.14% |
| CCSc1nnc(NC(=O)c2ccccc2C)s1 | – | inactive: -12.8% |
| CN(C)CCCNc1ncnc2c1cnn2Cc1ccccc1Cl | – | inactive: -25.4% |
| O=C(CN1CCOCC1)Nc1cc(C(F)(F)F)ccc1Cl | active: 21.2 µM | – |
| Cc1nn(-c2ncc(C(F)(F)F)cc2Cl)c(=O)n1-c1ccc(F)cc1 | inconclusive: 23.8 µM [inhibitor, single point] | – |
| CCOc1ccc(CCNC(=O)c2ccc3nc(CC)c(CC)nc3c2)cc1 | inconclusive: 26.7 µM [inhibitor, partial curve] | – |
| Nc1sccc1C(=O)NC1CC1 | inconclusive: 26.7 µM [inhibitor, partial curve] | – |
| Cc1ccc(C)c(/C=C/C(=O)c2ccccc(=O)c2O)c1 | inconclusive: 26.7 µM [inhibitor, partial curve] | – |
| Cc1ccc(NC(=O)c2ccc3c(SCC(=O)O)c4c(nc3c2)CCCC4)c(Br)c1 | inconclusive: 26.7 µM [inhibitor, single point] | – |
| CCCCCCCNC(=O)C1(CC2CC(c3ccc(Cl)cc3)=NO2)CCNCC1 (stereo unspecified) | – | inactive: -5.34% |
| Clc1ccccc1OCc1nc(-c2ccncc2)no1 | active: 6.7 µM | – |
| Cc1[nH]n(-c2ccccc2)c(=O)c1-c1ccc(Cl)cc1 | active: 26.7 µM | – |
| CC(C)n1c(=S)[nH]c2ccccc21 | active: 25.1 µM | – |
| CCOc1ccc(CNC(=O)C2CCN(c3nnc(C)c4c(C)n(-c5ccc(C)cc5)nc34)CC2)cc1 | – | inactive: -8.66% |
| Cc1cc(NC(=O)CCC(=O)N(Cc2ccco2)C(C(=O)NC2CCCC2)c2ccccc2)no1 (stereo unspecified) | – | inactive: -12.5% |
| COc1ccc(NC(=O)N[C@@H](Cc2ccccc2)C(=O)NN)cc1 | inconclusive: 23.8 µM [inhibitor, single point] | – |
| O=c1[nH][nH]c2c1[C@H](c1ccc(Cl)cc1)O[C@H](C1CCCC1)C2 | inconclusive: 18.9 µM [inhibitor, partial curve] | – |
| COC(=O)c1cc(S(=O)(=O)NCc2ccccc2)cn1C | inconclusive: 29.9 µM [inhibitor, partial curve] | – |
| CCN(CC)C(=O)c1cc(Cl)ccn1 | active: 11.9 µM | – |
| COc1cc(NC(=S)N2CCC(C(N)=O)CC2)cc(OC)c1 | inconclusive: 26.7 µM [inhibitor, partial curve] | – |
| Cc1ccc(-n2ncc(C#N)c2/N=C/N2CCN(C)CC2)cc1 | – | inactive: -6.37% |

A second format for some results above:
SMILES | Potency | max response, negative = inhibition
CC(=O)Nc1cc(-c2cccc(C(=O)N(C)C)c2)cn2c(-c3ccc(F)c(Cl)c3)cnc12 | – | inconclusive: -35.1% [inhibitor]
CCOc1ccc(CCNC(=O)c2ccc3nc(CC)c(CC)nc3c2)cc1 | inconclusive: 26.7 µM [inhibitor, partial curve] | –
COc1ccc(NC(=O)N[C@@H](Cc2ccccc2)C(=O)NN)cc1 | inconclusive: 23.8 µM [inhibitor, single point] | –
